Drawing on paper PMC4948772, this text covers binding for 3 molecules.

Chains of the proteins cited; added tags and fusions are not shown.
UniProt P16371: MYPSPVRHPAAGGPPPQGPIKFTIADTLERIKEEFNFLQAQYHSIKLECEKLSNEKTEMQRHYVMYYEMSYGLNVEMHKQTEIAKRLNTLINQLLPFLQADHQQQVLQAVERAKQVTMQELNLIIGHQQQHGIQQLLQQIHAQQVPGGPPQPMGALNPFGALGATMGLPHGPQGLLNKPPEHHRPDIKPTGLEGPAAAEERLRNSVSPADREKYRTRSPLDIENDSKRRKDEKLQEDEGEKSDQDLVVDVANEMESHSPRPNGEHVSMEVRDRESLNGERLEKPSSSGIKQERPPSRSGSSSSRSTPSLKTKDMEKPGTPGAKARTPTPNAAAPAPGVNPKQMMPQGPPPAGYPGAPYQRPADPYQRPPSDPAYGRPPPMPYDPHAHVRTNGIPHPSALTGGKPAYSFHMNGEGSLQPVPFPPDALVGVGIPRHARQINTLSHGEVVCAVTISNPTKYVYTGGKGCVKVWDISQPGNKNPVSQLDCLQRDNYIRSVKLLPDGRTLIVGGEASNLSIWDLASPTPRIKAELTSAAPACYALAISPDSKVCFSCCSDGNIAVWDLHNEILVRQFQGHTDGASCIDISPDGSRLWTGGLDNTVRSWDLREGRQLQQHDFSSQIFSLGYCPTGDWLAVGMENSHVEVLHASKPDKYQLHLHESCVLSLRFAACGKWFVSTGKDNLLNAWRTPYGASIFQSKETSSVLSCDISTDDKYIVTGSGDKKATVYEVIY

These are yes or no findings as the source states them, for the method shown. Some binding calls cover weakened binding; strength is not graded here.

B1: M8-S151A+S159D (protein, UniProt P13098 1-179)
chain: MEYTTKTQIYQKVKKPMLERQRRARMNKCLDNLKTLVAELRGDDGILRMDKAEMLESAVIFMRQQKTPKKVAQEEQSLPLDSFKNGYMNAVNEVSRVMASTPGMSVDLGKSVMTHLGRVYKNLQQFHEAQSAADFIQNSMDCSSMDKAPLAPASSGYHDDCDSPAPSPQPMQQPLWRPW
B2: M8-S151D (protein, UniProt P13098 1-179)
chain: MEYTTKTQIYQKVKKPMLERQRRARMNKCLDNLKTLVAELRGDDGILRMDKAEMLESAVIFMRQQKTPKKVAQEEQSLPLDSFKNGYMNAVNEVSRVMASTPGMSVDLGKSVMTHLGRVYKNLQQFHEAQSAADFIQNSMDCSSMDKAPLDPASSGYHSDCDSPAPSPQPMQQPLWRPW
B3: M8-S151D+S159D (protein, UniProt P13098 1-179)
chain: MEYTTKTQIYQKVKKPMLERQRRARMNKCLDNLKTLVAELRGDDGILRMDKAEMLESAVIFMRQQKTPKKVAQEEQSLPLDSFKNGYMNAVNEVSRVMASTPGMSVDLGKSVMTHLGRVYKNLQQFHEAQSAADFIQNSMDCSSMDKAPLDPASSGYHDDCDSPAPSPQPMQQPLWRPW

The target in this assay is Groucho (Drosophila) (UniProt P16371). The assay can be described thus: two-hybrid; LexA-based yeast interaction trap; bait fused to the DNA-binding domain of LexA, prey to the activation domain of B42; yeast strain EGY048p; which protein was bait is not stated.
For B1, the binding entry is “binds”. For the molecule B2, the binding result is “binds”. The same measure for B3: “binds”.
